In PubChem BioAssay AID504648 (National Center for Advancing Translational Sciences (NCATS), 2011):
Out of some 390,000 compounds screened, about 610 (0.16%) were called active. The inconclusive results got no clear call from the source; some entries with a clear call stand among them for comparison. Calls come from the whole dose curve; as a rule, active = well fitted inhibition curve with a large enough effect; inconclusive = small, poorly fitted or top-dose-only effect, or effect the other way, or another doubt; inactive = no such curve, though single readings can be large or run the other way. Potencies beside an inconclusive call are fits to weak or partial responses and may not hold up.

Experiment: Nrf2 qHTS screen for inhibitors: counterscreen for cytotoxicity
Conditions: A549 ARE-Fluc cells, CellTiter-Fluor viability, 18-24 h; series mostly up to 46 µM
Summary of the method: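 Cytotoxicity counterscreen: CellTiter-Fluor fluorescence was measured in A549 ARE_Fluc cells after 18-24 h of compound exposure in a concentration series. The subsequent BugLite luminescent read reports ARE-luciferase activity.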
Potency is the fitted concentration of half-maximal effect.

Compound | Potency
CCc1ccc(C(=O)COC(=O)c2cc([N+](=O)[O-])ccc2NCCO)cc1 | active: 14.6 µM
CSCCC(NS(=O)(=O)c1ccc2c(c1)OCCO2)C(=O)N(C)Cc1ccccc1F (centres undefined) | inactive
Cc1cccc(Cn2c(SCc3ccc(C(=O)N4CCC(C)CC4)cc3)nc3ccncc32)c1 | inconclusive: 16.4 µM [falling, single point]
CCc1nccn1S(=O)(=O)c1ccc(C)c(C)c1 | inconclusive: 25.9 µM [falling, partial curve, poor fit]
COc1cc(/C=C2\CC/C(=C\c3ccc(OCCO)c(OC)c3)C2=O)ccc1OCCO | inactive
CC1=CC(C)[C@H](/C=N/n2c(=O)[nH]c3c([nH]c4ccc(C)cc43)c2=O)C(C)C1 (some centres undefined) | inconclusive: 10.3 µM [falling, partial curve]
O=C(Nc1ccc2nc(SCC(=O)N3CCCC3)sc2c1)c1ccc(Br)cc1 | inactive
CCOc1ccc(C(O)(c2ccccc2)C(CN2CCCC2)c2ccccc2)cc1 (centres undefined) | inactive
CC1CN(S(=O)(=O)c2cc(C(=O)NCc3ccncc3)ccc2Cl)CC(C)O1 (centres undefined) | inactive
CC(=O)Oc1ccc(-c2ccc(C(=O)OCC(=O)N(C)CC(=O)Nc3ccccc3Cl)cc2)cc1 | inconclusive: 29.1 µM [falling, partial curve, poor fit]
CNc1oc(-c2ccccc2F)nc1S(=O)(=O)c1ccc(C)cc1 | inactive
CC(NC(=O)c1ccccc1)c1nc2ccccc2n1Cc1ccc(C#N)cc1 (centres undefined) | inconclusive: 16.4 µM [activator, partial curve, poor fit]
O=C(Nc1ccc2c(c1)OCCO2)c1cccc2nc3ccccc3nc12 | active: 20.6 µM
Cc1ccccc1-n1c(SCC(=O)Nc2ccc3c(c2)OCO3)nnc1-c1ccccn1 | inconclusive: 20.6 µM [falling, single point]
C=C1C(=O)c2sccc2C(c2ccc(OC)c(OC)c2)C1COC(C)=O (centres undefined) | inactive
NC(=S)N/N=C/c1ccc2cccc(OCc3ccccc3)c2n1 | inconclusive: 16.4 µM [falling, single point]
COc1cccc(C=C2SC(=S)NC2=O)c1 | inconclusive: 16.4 µM [falling, partial curve, poor fit]
O=C(CCN1C(=O)COc2ccccc21)NCCN1CCc2ccccc2C1 | inconclusive: 5.8 µM [activator, partial curve, poor fit]
CN1CCC[C@H]1CCNc1ccc2c(=O)c3ccccc3n(C)c2c1 | inactive
COc1ccc(Nc2nnc(SCC(=O)/C=C3/N(C)c4ccccc4C3(C)C)s2)cc1 | inconclusive: 29.1 µM [falling, partial curve, poor fit]
O=C(c1ccco1)N1CCC(n2nnc3ccccc32)CC1 | inconclusive: 20.6 µM [activator, partial curve, poor fit]
CCOC(=O)c1c(C)[nH]c(C(=O)OCC(=O)Nc2sccc2C(N)=O)c1C | inconclusive: 32.6 µM [falling, partial curve, poor fit]
Cc1cccc(NC(=S)NC2CC3CCCC(C2)N3CC(C)C)c1C (centres undefined) | inconclusive: 20.6 µM [activator, partial curve, poor fit]

Compound | Potency
O=C(c1ccccc1Cl)N1N=C(c2ccc(Br)cc2)CC1c1nc2ccccc2[nH]1 (centres undefined) | inconclusive: 11.6 µM [falling, partial curve]
Cc1ccc(C(=O)NC(=S)Nc2ccc(N3CCOCC3)cc2)cc1C | inactive
COc1ccccc1OCC(=O)N/N=C1\CCc2ccccc21 | inactive
O=c1ccc(N=Nc2ccccc2)ccc1O | active: 16.4 µM
Cc1ccc(C)c(NC(=O)CN(C)C(=O)[C@@H](NC(=O)c2ccc(C(C)(C)C)cc2)C(C)C)c1 | inconclusive: 29.1 µM [falling, single point]
Cc1c(C)n(Cc2ccc(F)cc2)c2ccc(C(=O)Nc3ccc(Cl)cc3)cc12 | inactive
O=C(Nc1ccc(CN2CCCCC2)cc1)Nc1ccc(Br)cc1Cl | inconclusive: 23.1 µM [activator, partial curve, poor fit]
O=C1Nc2ccc(Cl)cc2C12Nc1ccccc1-c1nnc(SCc3ccccc3F)nc1O2 (centres undefined) | inactive
CC1CCCN(CC(=O)Nc2ccc(S(=O)(=O)N3CCCCC3)cc2)C1 (centres undefined) | inconclusive: 23.1 µM [activator, partial curve, poor fit]
CC(Sc1nc(-c2ccccc2)cc(C(F)(F)F)n1)C(=O)N1CCCCC1 (centres undefined) | inconclusive: 4.61 µM [falling, single point]
CCOC(=O)c1cnc2ccc(C)cc2c1NCCc1ccc(OC)c(OC)c1 | inactive
Cc1ccc(NC(=O)c2sc3nc(-c4ccc(F)cc4)ccc3c2N)cc1F | inconclusive: 5.8 µM [activator, partial curve]
CC1CC(O)C(C)CN1 (centres undefined) | inactive
Cc1[nH]n(-c2ccccc2)c(=O)c1/C=N/N1C(=O)c2ccc3c4c(ccc(c24)C1=O)CC3 | inconclusive: 29.1 µM [falling, single point]
O=C(OC(C(=O)Nc1ccc(Cl)cc1C(F)(F)F)c1ccccc1)c1c(Cl)cccc1Cl (centres undefined) | inconclusive: 5.17 µM [activator, partial curve, poor fit]
COC(=O)Cc1c(C)c2ccc3c(c2oc1=O)CN(Cc1ccccc1OC)CO3 | inconclusive: 25.9 µM [activator, partial curve, poor fit]
O=S(=O)(CC(CN1CCCCC1)N1CCCCC1)c1ccccc1 (centres undefined) | inconclusive: 20.6 µM [falling, single point]
O=C(COC(=O)c1cc([N+](=O)[O-])ccc1N1CCOCC1)NCc1ccc(F)cc1 | inconclusive: 23.1 µM [falling, single point]
Cc1cc(C)cc(Nc2nnc(-n3nc(C)cc3C)c3ccccc23)c1 | inconclusive: 6.51 µM [falling, partial curve, poor fit]
Cc1ccc2nc(NCc3ccccc3)c(C=NCc3ccccc3)c(=O)n2c1 | inactive
Oc1ccc(/C=C/c2ccnc3ccccc23)cc1 | inconclusive: 20.6 µM [falling, single point]
COc1ccc(C(=O)C2CCCN(C(=O)c3noc4c3CCCC4)C2)c(C)c1 (centres undefined) | inactive
O=C(C1CCN(C2CCN(Cc3ccc4cc(F)ccc4n3)CC2)CC1)N1CCCC1 | inconclusive: 0.92 µM [activator, full curve, poor fit]

A draw from above in order of molecular weight, largest number first:
Compound | Potency
O=C(OC(C(=O)Nc1ccc(Cl)cc1C(F)(F)F)c1ccccc1)c1c(Cl)cccc1Cl (centres undefined) | inconclusive: 5.17 µM [activator, partial curve, poor fit]
O=C(C1CCN(C2CCN(Cc3ccc4cc(F)ccc4n3)CC2)CC1)N1CCCC1 | inconclusive: 0.92 µM [activator, full curve, poor fit]
Cc1cc(C)cc(Nc2nnc(-n3nc(C)cc3C)c3ccccc23)c1 | inconclusive: 6.51 µM [falling, partial curve, poor fit]

The listing continues:

Compound | Potency
Cc1[nH]oc(=O)c1N=Nc1ccc2[nH]c(=O)[nH]c2c1 | inconclusive: 18.4 µM [falling, partial curve]
Cc1cc(/C=C2\Sc3ccccc3N2C)cc(C)[n+]1CC1CCCO1 (centres undefined) | active: 4.11 µM
COc1ccc(/C=C2\SC(=S)N(CCC(=O)NCCCN3CCOCC3)C2=O)cc1 | active: 11.6 µM
CCCc1ccc(-c2csc(NC(=O)Cc3cccs3)n2)cc1 | inconclusive: 16.4 µM [falling, partial curve, poor fit]
COc1ccc(C(=O)Nc2ccc(C)c(S(=O)(=O)N3CCCCCC3)c2)cc1 | inactive
O=C(Nc1ccc(N2CCCC2)c(Cl)c1)c1ccc([N+](=O)[O-])o1 | inconclusive: 29.1 µM [falling, partial curve, poor fit]
Cc1cc(N2CCN(C)CC2)nc2ccc(NC(=O)c3ccc4c(c3)OCO4)cc12 | inconclusive: 23.1 µM [falling, partial curve, poor fit]
COc1ccc(/C=C/C(=O)c2cc(F)ccc2OC(=O)c2ccccc2)cc1OC | inconclusive: 7.31 µM [falling, partial curve, poor fit]
Cc1ccc(-n2c(=O)c3c(cnn3C)n(CC(=O)Nc3c(C)cccc3C)c2=O)cc1 | inconclusive: 14.6 µM [falling, partial curve, poor fit]
Cn1c(=O)c2c(n3ncnc13)NC(=O)CC2c1cccc(F)c1 (centres undefined) | inactive
COc1ccc(NS(=O)(=O)c2ccc3c(c2)CC(C)N3C(C)=O)c(OC)c1 (centres undefined) | inactive
CCOC(=O)C1=C(CN2CCC(C)CC2)NC(=O)NC1c1ccc(Cl)cc1 (centres undefined) | inconclusive: 29.1 µM [falling, single point]
C=CCOc1c(Cl)cc(C(=S)N2CCCC2)cc1OCC | inconclusive: 32.6 µM [falling, partial curve, poor fit]
COC(=O)c1ccc(Nc2ccc3nonc3c2[N+](=O)[O-])cc1 | inactive
COc1cccc(Nc2sc(C(=O)c3ccc(F)cc3)c(N)c2C(=O)NCc2ccc(C)cc2)c1 | inconclusive: 20.6 µM [falling, partial curve]
COc1ccc(NC(=O)CSc2c3c(nc4ccccc24)CCC3)c(OC)c1 | inconclusive: 29.1 µM [falling, single point]
O=C(CSc1nc2ccccc2c(=O)[nH]1)c1cccs1 | inactive
CCCc1ccc(-c2cc(NC(=O)CSc3n[nH]c(N)n3)n(-c3ccccc3)n2)cc1 | inconclusive: 29.1 µM [falling, single point]
COc1cccc(NC(=O)CSCn2nnc3c(=O)[nH]c(Cc4ccc(F)cc4)nc32)c1 | inactive
COc1cc(-c2n[nH]c(=S)n2-c2cc(C(F)(F)F)ccc2Cl)cc(OC)c1OC | inactive
Cc1ccc([N+](=O)[O-])c(C(=O)N/N=C/c2cccs2)c1 | inactive
CC(=O)c1ccc(NC(=O)CCNC(=O)c2ccccc2Cl)cc1 | inactive
CC1=CSC2=NC(=O)/C(=C\c3cccn3-c3ccc([N+](=O)[O-])cc3)C(=N)N12 | inconclusive: 32.6 µM [falling, partial curve, poor fit]
